Results are given in words; binding and its absence hold for the method and conditions named. Some binding calls cover weakened binding; strength is not graded here.
Molecular target: AKT1 kinase domain (WT) fused to the Gal4 DNA binding domain (UniProt P04386)
Test: mammalian 2-hybrid, luciferase reporter; reference pair

Protein sequences, listed by entry. Tags and fused reporters are not part of them. Lines headed by an entry give the natural chain unless they say otherwise; changes in a name come on top. Residues count along the entry.
UniProt P04386: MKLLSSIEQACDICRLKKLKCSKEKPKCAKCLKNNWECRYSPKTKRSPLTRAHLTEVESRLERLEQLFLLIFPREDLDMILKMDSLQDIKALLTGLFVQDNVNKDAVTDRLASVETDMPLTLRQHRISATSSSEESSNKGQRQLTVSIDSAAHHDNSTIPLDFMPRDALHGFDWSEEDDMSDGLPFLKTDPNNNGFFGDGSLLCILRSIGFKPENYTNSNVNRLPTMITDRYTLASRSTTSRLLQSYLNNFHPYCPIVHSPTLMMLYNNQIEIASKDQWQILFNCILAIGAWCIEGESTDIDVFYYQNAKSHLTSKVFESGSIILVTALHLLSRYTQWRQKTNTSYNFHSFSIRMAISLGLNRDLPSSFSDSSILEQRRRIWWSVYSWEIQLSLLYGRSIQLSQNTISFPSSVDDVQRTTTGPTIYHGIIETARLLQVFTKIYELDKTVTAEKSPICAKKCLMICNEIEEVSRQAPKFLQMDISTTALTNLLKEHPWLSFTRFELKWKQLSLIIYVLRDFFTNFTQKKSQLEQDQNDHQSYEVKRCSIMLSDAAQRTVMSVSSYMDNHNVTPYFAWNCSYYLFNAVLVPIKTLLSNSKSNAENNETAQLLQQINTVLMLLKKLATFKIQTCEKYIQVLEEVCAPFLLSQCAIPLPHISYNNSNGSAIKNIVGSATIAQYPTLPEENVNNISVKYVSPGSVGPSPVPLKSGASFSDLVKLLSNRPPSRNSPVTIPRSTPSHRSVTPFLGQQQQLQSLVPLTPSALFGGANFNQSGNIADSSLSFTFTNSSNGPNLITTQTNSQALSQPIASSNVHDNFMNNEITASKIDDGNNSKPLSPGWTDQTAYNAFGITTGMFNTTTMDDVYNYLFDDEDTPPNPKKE
UniProt P31749, residues 5-108: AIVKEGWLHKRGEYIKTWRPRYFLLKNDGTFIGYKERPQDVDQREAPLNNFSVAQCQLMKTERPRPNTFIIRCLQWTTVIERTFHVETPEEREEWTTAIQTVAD

**Q.** “AKT1 PH domain (WT) fused to the VP16 activation domain (from UniProt P31749 5-108)” was tested. Which binding did it give?
**A.** binds

— patent US20140031259A1
